Data: PubChem BioAssay AID220 (DTP/NCI, 2004)
The list shows only some results of the screen, not a fair sample: it gathers tests that were run many times, whatever their T/C, doses with no T/C, and many T/C values between a quarter and a half above the control. Other doses and runs of a compound stand elsewhere. T/C gives the treated animals as a percentage of the vehicle group. Schedule codes are those of the source, taken here to give the interval after Q, in days (D) or hours (H), and the number of doses after X. Some T/C values are followed by the survivors on the day toxicity was checked, most often the fifth; where none is given, no animal had died by that day. Some entries give survivors of the animals treated and no T/C: the source holds a T/C of zero for them, seemingly a mark for toxic or unscored doses. Counts of survivors are from the toxicity check (mostly the fifth day) where no day follows; animals may have died later. Some entries were tested several times; the values are given in rising order.

System: CD8F1 mice, subcutaneous mammary adenocarcinoma, T/C%
Test: NCI In Vivo Anticancer Drug Screen. Data for tumor model Mammary Adenocarcinoma CD8F1 (subcutaneous) in CD8F1
Conditions: higher T/C = larger tumour
Summary of the method: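 Tumor-bearing mice, transplantable model; readout survival or tumor size; value = treated (T) / vehicle control (C).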

[1] = T/C endpoint: median tumor weight change, dose: 500.0 mg/kg/injection, schedule: Q01DX001 (ip), vehicle: Klucel (hydroxypropylcellulose) (HPC)
[2] = T/C endpoint: median tumor weight change, dose: 2000.0 mg/kg/injection, schedule: Q01DX001 (ip), vehicle: saline with Tween-80
[3] = T/C endpoint: median tumor weight change, dose: 500.0 mg/kg/injection, schedule: Q01DX001 (ip), vehicle: saline with Tween-80
[4] = T/C endpoint: median tumor weight change, dose: 1000.0 mg/kg/injection, schedule: Q01DX001 (ip), vehicle: saline with Tween-80

O=c1[nH]c2c(ccc3cnccc32)c2c1CCC2
T/C (T/C endpoint: median tumor weight (est.), dose: 12.5 mg/kg/injection, schedule: Q07DX005 (ip), vehicle: saline, evaluated on day 30): 131 % of control

CCN(C)N=Nc1ccc(C(N)=O)cc1
survivor count [1]: 3 of 10 on day 27 | survivor count (T/C endpoint: median tumor weight change, dose: 800.0 mg/kg/injection, schedule: Q01DX001 (ip), vehicle: Klucel (hydroxypropylcellulose) (HPC)): 0 of 10 on day 28

COC1C(OC(=O)/C=C/C=C/C=C/C=C/C(=O)O)CCC2(CO2)C1C1(C)OC1CC=C(C)C (stereo unspecified)
survivor count (T/C endpoint: median tumor weight change, dose: 1000.0 mg/kg/injection, schedule: Q01DX001 (ip), vehicle: suspension in saline): 0 of 10 on day 40

O=S(=O)(O)O
survivor count (T/C endpoint: median tumor weight change, dose: 125.0 mg/kg/injection, schedule: Q01DX001 (ip), vehicle: Klucel (hydroxypropylcellulose) (HPC)): 4 of 10 on day 28 | survivor count (T/C endpoint: median tumor weight change, dose: 250.0 mg/kg/injection, schedule: Q01DX001 (ip), vehicle: Klucel (hydroxypropylcellulose) (HPC)): 1 of 10 on day 28 | survivor count [1]: 1 of 10 on day 28 | survivor count (T/C endpoint: median tumor weight change, dose: 1000.0 mg/kg/injection, schedule: Q01DX001 (ip), vehicle: Klucel (hydroxypropylcellulose) (HPC)): 0 of 10 on day 28

CC(=O)Oc1c[nH]c(=O)[nH]c1=O
survivor count [2]: 4 of 10 on day 36

Cc1c(N)nc([C@H](CC(N)=O)NC[C@H](N)C(N)=O)nc1C(=O)N[C@H](C(=O)N[C@H](C)[C@@H](O)CC(=O)N[C@H](C(=O)NC(O[C@@H]1O[C@@H](C)[C@@H](N)[C@@H](O)[C@H]1O)C(O)c1nc(-c2nc(C(=O)NCCCCN)cs2)cs1)[C@@H](C)O)[C@@H](O[C@@H]1O[C@@H](CO)[C@@H](O)[C@H](O)[C@@H]1O[C@H]1O[C@H](CO)[C@@H](O)[C@H](OC(N)=O)[C@@H]1O)c1c[nH]cn1 (stereo partly specified)
T/C (T/C endpoint: median tumor weight change, dose: 2.0 mg/kg/injection, schedule: Q01DX001 (ip), vehicle: saline, evaluated on day 33): 130 % of control

NC(=O)/C=C/c1c[nH]c2nccnc12
survivor count (T/C endpoint: median tumor weight change, dose: 250.0 mg/kg/injection, schedule: Q01DX001 (ip), vehicle: water): 4 of 10 on day 35

CN(C)c1ccc(C(=C2C=CC(=[N+](C)C)C=C2)c2ccc(N(C)C)cc2)cc1 (tested in a mixture with another compound)
survivor count (T/C endpoint: median tumor weight change, dose: 10.0 mg/kg/injection, schedule: Q01DX001 (ip), vehicle: saline with Tween-80): 3 of 10 on day 28 | survivor count (T/C endpoint: median tumor weight change, dose: 12.5 mg/kg/injection, schedule: Q01DX001 (ip), vehicle: saline with Tween-80): 0 of 10 on day 36 | survivor count (T/C endpoint: median tumor weight change, dose: 20.0 mg/kg/injection, schedule: Q01DX001 (ip), vehicle: saline with Tween-80): 0 of 10 on day 28 | survivor count (T/C endpoint: median tumor weight change, dose: 25.0 mg/kg/injection, schedule: Q01DX001 (ip), vehicle: saline with Tween-80): 0 of 10 on day 36 | survivor count (T/C endpoint: median tumor weight change, dose: 40.0 mg/kg/injection, schedule: Q01DX001 (ip), vehicle: saline with Tween-80): 0 of 10 on day 28 | survivor count (T/C endpoint: median tumor weight change, dose: 50.0 mg/kg/injection, schedule: Q01DX001 (ip), vehicle: saline with Tween-80): 0 of 10 on day 36 | survivor count (T/C endpoint: median tumor weight change, dose: 100.0 mg/kg/injection, schedule: Q01DX001 (ip), vehicle: saline with Tween-80): 0 of 10 on day 36

C[CH2][Sn]([CH2]C)([CH2]C(=O)OC)[CH2]C(=O)OC
T/C (T/C endpoint: median tumor weight change, dose: 4.0 mg/kg/injection, schedule: Q01DX001 (ip), vehicle: saline with Tween-80, evaluated on day 31): 142 % of control [8 of 10 alive on day 31] | T/C (T/C endpoint: median tumor weight change, dose: 8.0 mg/kg/injection, schedule: Q01DX001 (ip), vehicle: saline with Tween-80, evaluated on day 31): 141 % of control | survivor count (T/C endpoint: median tumor weight change, dose: 32.0 mg/kg/injection, schedule: Q01DX001 (ip), vehicle: saline with Tween-80): 0 of 10 on day 31 | survivor count (T/C endpoint: median tumor weight change, dose: 62.5 mg/kg/injection, schedule: Q01DX001 (ip), vehicle: saline with Tween-80): 0 of 10 on day 29 | survivor count (T/C endpoint: median tumor weight change, dose: 64.0 mg/kg/injection, schedule: Q01DX001 (ip), vehicle: saline with Tween-80): 0 of 10 on day 31 | survivor count (T/C endpoint: median tumor weight change, dose: 125.0 mg/kg/injection, schedule: Q01DX001 (ip), vehicle: saline with Tween-80): 0 of 10 on day 29 | survivor count (T/C endpoint: median tumor weight change, dose: 250.0 mg/kg/injection, schedule: Q01DX001 (ip), vehicle: saline with Tween-80): 0 of 10 on day 29 | survivor count [3]: 0 of 10 on day 29 | survivor count [4]: 0 of 10 on day 29

O=C1NC2(CCCCC2)C(=O)N1CCN(CCCl)CCCl
survivor count (T/C endpoint: median tumor weight change, dose: 75.0 mg/kg/injection, schedule: Q01DX001 (ip), vehicle: saline with Tween-80): 5 of 10 on day 29 and 5 of 10 on day 35 | survivor count (T/C endpoint: median tumor weight change, dose: 150.0 mg/kg/injection, schedule: Q01DX001 (ip), vehicle: saline with Tween-80): 1 of 10 on day 29 and 1 of 10 on day 35 | survivor count (T/C endpoint: median tumor weight change, dose: 300.0 mg/kg/injection, schedule: Q01DX001 (ip), vehicle: saline with Tween-80): 0 of 10 on day 29

C[PH+](C)C.C[PH+](C)C.[Au]
survivor count (T/C endpoint: median tumor weight change, dose: 25.0 mg/kg/injection, schedule: Q01DX001 (ip), vehicle: saline): 0 of 10 on day 32 and 2 of 10 on day 28 | survivor count (T/C endpoint: median tumor weight change, dose: 50.0 mg/kg/injection, schedule: Q01DX001 (ip), vehicle: saline): 0 of 10 on day 28 and 0 of 10 on day 32

FC(F)(F)c1nc2nc(Cl)c(Cl)nc2[nH]1
survivor count [3]: 4 of 10 on day 31 | survivor count [4]: 0 of 10 on day 31

O=C1CC2(C(=O)N1CN1CCOCC1)c1ccccc1-c1ccccc12
survivor count (T/C endpoint: median tumor weight change, dose: 2000.0 mg/kg/injection, schedule: Q01DX001 (ip), vehicle: Klucel (hydroxypropylcellulose) (HPC)): 0 of 10 on day 38

C=C1C(=O)OCC2C(C(=O)O)=CC3C(C)C(C)=CC123 (stereo unspecified)
T/C (T/C endpoint: median tumor weight (est.), dose: 10.0 mg/kg/injection, schedule: Q07DX005 (ip), vehicle: Klucel (hydroxypropylcellulose) (HPC), evaluated on day 30): 134 % of control | survivor count (T/C endpoint: median tumor weight (est.), dose: 160.0 mg/kg/injection, schedule: Q07DX005 (ip), vehicle: Klucel (hydroxypropylcellulose) (HPC)): 2 of 10 on day 30 | survivor count (T/C endpoint: median tumor weight (est.), dose: 320.0 mg/kg/injection, schedule: Q07DX005 (ip), vehicle: Klucel (hydroxypropylcellulose) (HPC)): 0 of 10 on day 30 and 0 of 10 on day 32

c1ccc2c(c1)[As]=c1ccccc1=[As]2 (stereo unspecified)
survivor count (T/C endpoint: median tumor weight change, dose: 480.0 mg/kg/injection, schedule: Q01DX001 (ip), vehicle: saline with Tween-80): 0 of 10 on day 28

CN=C(N)N/N=C(\C)c1ccc2c(c1)Cc1ccccc1-2
survivor count [3]: 4 of 10 on day 33 | survivor count [4]: 0 of 10 on day 33 | survivor count [2]: 0 of 10 on day 33

CC(=O)NCCCCCCNC(C)=O
T/C (T/C endpoint: median tumor weight change, dose: 500.0 mg/kg/injection, schedule: Q01DX001 (ip), vehicle: saline, evaluated on day 31): 130 % of control | survivor count (T/C endpoint: median tumor weight change, dose: 4000.0 mg/kg/injection, schedule: Q01DX001 (ip), vehicle: saline): 4 of 9 on day 28

Nc1ncnc2c1ncn2C1C=C(CO)C(O)C1O (stereo unspecified)
survivor count (T/C endpoint: median tumor weight change, dose: 20.0 mg/kg/injection, schedule: Q01DX001 (ip), vehicle: suspension in saline): 4 of 10 on day 27 | survivor count (T/C endpoint: median tumor weight change, dose: 40.0 mg/kg/injection, schedule: Q01DX001 (ip), vehicle: suspension in saline): 0 of 10 on day 27 and 6 of 10 on day 33 | survivor count (T/C endpoint: median tumor weight change, dose: 80.0 mg/kg/injection, schedule: Q01DX001 (ip), vehicle: saline): 2 of 10 on day 28 | survivor count (T/C endpoint: median tumor weight change, dose: 80.0 mg/kg/injection, schedule: Q01DX001 (ip), vehicle: suspension in saline): 0 of 10 on day 27 and 1 of 9 on day 33

CN=C(N)N/N=C(\C)c1ccc2c(c1)Cc1cc(/C(C)=N/NC(N)=NC)ccc1-2
T/C (T/C endpoint: median tumor weight change, dose: 3.75 mg/kg/injection, schedule: Q01DX001 (ip), vehicle: saline with Tween-80, evaluated on day 30): 138 % of control | survivor count (T/C endpoint: median tumor weight change, dose: 30.0 mg/kg/injection, schedule: Q01DX001 (ip), vehicle: saline with Tween-80): 2 of 10 on day 30 | survivor count (T/C endpoint: median tumor weight change, dose: 60.0 mg/kg/injection, schedule: Q01DX001 (ip), vehicle: saline with Tween-80): 0 of 10 on day 30
